Assay results published in patent publication US12696899B2, “Microbiocidal 2-acylamino-thiazole-4-carboxamide derivatives” (SYNGENTA CROP PROTECTION AG, priority 2018, dated 2026).
Read-outs that look alike come from different tables or passages of the source. Some of these results come from one statement about several compounds together.

Assays:
[1] = system: Monographella nivalis (Microdochium nivale); test: Example B8 Monographella nivalis (Microdochium nivale)/liquid culture (foot rot cereals); format: cell-based
[2] = system: Plasmopara viticola; format: in vivo; details: 200 ppm
[3] = system: Alternaria solani; test: Example B1 Alternaria solani/tomato/leaf disc (early blight); format: in vivo; details: 200 ppm
[4] = system: Glomerella lagenarium (Colletotrichum lagenarium); test: Example B3 Glomerella lagenarium (Colletotrichum lagenarium)/liquid culture (anthracnose); format: cell-based
[5] = system: Phaeosphaeria nodorum (Septoria nodorum); test: Example B7 Phaeosphaeria nodorum (Septoria nodorum)/wheat/leaf disc preventative (glume blotch); format: in vivo; details: 200 ppm
[6] = system: Mycosphaerella arachidis (Cercospora arachidicola); test: Example B9 Mycosphaerella arachidis (Cercospora arachidicola)/liquid culture (early leaf spot); format: cell-based
[7] = system: Phakopsora pachyrhizi; test: Example B10 Phakopsora pachyrhizi/soybean/preventative (soybean rust); format: in vivo; details: 200 ppm
[8] = system: Puccinia recondita f. sp. tritici; test: Example B12 Puccinia recondita f. sp. tritici/wheat/leaf disc curative (brown rust); format: in vivo; details: 200 ppm
[9] = system: Puccinia recondita f. sp. tritici; test: Example B13 Puccinia recondita f. sp. tritici/wheat/leaf disc preventative (brown rust); format: in vivo; details: 200 ppm
[10] = system: Magnaporthe grisea (Pyricularia oryzae); format: in vivo; details: 200 ppm
[11] = system: Pyrenophora teres; test: Example B15 Pyrenophora teres/barley/leaf disc preventative (net blotch); format: in vivo; details: 200 ppm
[12] = system: Mycosphaerella graminicola (Septoria tritici); test: Example B17 Mycosphaerella graminicola (Septoria tritici)/liquid culture (Septoria blotch); format: cell-based

Cc1sc(N(C(=O)Oc2ccccc2)c2cc(F)nc(F)c2)nc1C(=O)NC1CCC1(C)C (centres unmarked) [I.b.616, phenyl N-(2,6-difluoro-4-pyridyl)-N-[4-[(2,2-dimethylcyclobutyl)carbamoyl]-5-methyl-thiazol-2-yl]carbamate]
at least 80%: control of Monographella nivalis [1]

COC(=O)CC(=O)N(c1cc(F)nc(F)c1)c1nc(C(=O)NC2CCC2(C)C)c(C)s1 (centres unmarked) [I.b.607, methyl 3-[(2,6-difluoro-4-pyridyl)-[4-[(2,2-dimethylcyclobutyl)carbamoyl]-5-methyl-thiazol-2-yl]amino]-3-oxo-propanoate]
at least 80%: control of Plasmopara viticola ([2]; grape leaf disc preventative, compared to untreated control)

Cc1sc(N(C(=O)CF)c2cc(F)nc(F)c2)nc1C(=O)NC1CCC1(C)C (centres unmarked) [I.b.603, 2-[(2,6-difluoro-4-pyridyl)-(2-fluoroacetyl)amino]-N-(2,2-dimethylcyclobutyl)-5-methyl-thiazole-4-carboxamide]
at least 80%: control of Alternaria solani [3] | control of Glomerella lagenarium [4] | control of Phaeosphaeria nodorum [5] | control of Monographella nivalis [1] | control of Mycosphaerella arachidis [6] | control of Phakopsora pachyrhizi [7] | control of Plasmopara viticola [2] | control of Puccinia recondita f. sp. tritici [8] | control of Puccinia recondita f. sp. tritici [9] | control of Magnaporthe grisea [10] | control of Pyrenophora teres [11] | control of Mycosphaerella graminicola [12]
